Data reported in PubChem BioAssay AID1532 (PCMD, 2009).
Some of the results follow.

The molecules below were run on RmlC (dTDP-4-dehydrorhamnose 3,5-epimerase) and RmlD (dTDP-4-dehydrorhamnose reductase), coupled enzyme assay (assay: RmlC and RmlD coupled enzyme inhibitors, primary screen, biochemical, 384-well, compound mixtures, retest (AID 1532)). Conditions: 384-well mixture HTS, measured here: mean retest inhibition, at 5.5 µM, stronger effect = higher value.
Work on `O=P(Nc1nccs1)(c1ccccc1)c1nc2ccccc2s1` (stereo not drawn) yielded an inhibition of 32.7%. `CN(C)CCOC(=O)C(O)(c1ccccc1)C1CCCC1` (stereo not drawn) gave an inhibition of -7.37%. In the case of `CCc1ccc(OP(C)(=O)O)cc1`, the inhibition is reported as -1.87%.
